# Measured values as given in PubChem BioAssay AID1671190 (National Center for Advancing Translational Sciences (NCATS), 2021).
# The chains behind the UniProt entries cited, without tags or fusion partners. Where a name states a change or a piece, a line headed by the entry shows the natural chain unless it says otherwise.
# UniProt P18054: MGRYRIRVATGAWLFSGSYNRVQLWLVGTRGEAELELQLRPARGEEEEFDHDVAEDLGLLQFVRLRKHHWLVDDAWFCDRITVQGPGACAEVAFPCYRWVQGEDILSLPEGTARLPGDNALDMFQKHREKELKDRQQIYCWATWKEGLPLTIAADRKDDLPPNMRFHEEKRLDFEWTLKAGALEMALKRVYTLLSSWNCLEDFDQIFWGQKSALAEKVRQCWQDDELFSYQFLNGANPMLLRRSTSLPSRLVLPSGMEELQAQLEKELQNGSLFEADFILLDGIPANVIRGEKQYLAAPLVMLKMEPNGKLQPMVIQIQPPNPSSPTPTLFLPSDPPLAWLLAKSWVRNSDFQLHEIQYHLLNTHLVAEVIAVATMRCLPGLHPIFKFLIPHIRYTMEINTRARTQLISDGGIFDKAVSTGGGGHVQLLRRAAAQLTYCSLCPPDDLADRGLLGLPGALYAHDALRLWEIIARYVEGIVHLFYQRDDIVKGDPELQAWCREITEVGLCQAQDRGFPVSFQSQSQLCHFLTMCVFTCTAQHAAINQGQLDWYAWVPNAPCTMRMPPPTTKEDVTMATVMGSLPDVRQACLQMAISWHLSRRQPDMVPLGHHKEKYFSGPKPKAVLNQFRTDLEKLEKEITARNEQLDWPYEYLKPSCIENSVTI
# The whole screen tested about 580,000 compounds, of which about 6,100 (1.1%) were called active. Inconclusive results, whose numbers are uncertain, are shown with a selection of clear calls. Calls come from the whole dose curve; as a rule, active = well fitted inhibition curve with a large enough effect; inconclusive = small, poorly fitted or top-dose-only effect, or another doubt; inactive = no such curve, though single readings can be large or run the other way. Where the call is inconclusive, the potency comes from a doubtful curve fit.
# Target: Polyunsaturated fatty acid lipoxygenase ALOX12 (Homo sapiens) (UniProt P18054)
# Assay: Primary qHTS assay for inhibitors of human arachidonate 12S-lipoxygenase (ALOX12): Round 2
# Conditions: purified 12hLO, xylenol orange hydroperoxide absorbance; activity change, negative = inhibition: at 108 µM (top of the series) unless noted
# Procedure, shortened: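 Hydroperoxide product was detected by ferrous iron/xylenol orange as the 573 to 405 nm absorbance ratio. Arachidonic acid at 40 uM (final) was turned over for 30 min at room temperature by 150 nM human 12hLO, pH 7.0 Hepes buffer, after 15 min compound preincubation.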
# % is set by controls: 0 for no effect and ±100 for the full control effect; potency is the fitted concentration of half-maximal effect.
Compound,Potency,"activity change, negative = inhibition"
CN(C(=O)COc1ccccc1C(=O)NCCOc1ccccc1)c1ccccc1,inactive,–
Cc1ccc(NC(=O)C2Cc3ccccc3O2)cc1S(N)(=O)=O (stereo not given),inactive,–
COc1cc(C2CC(=O)Nc3nc(C)[nH]c(=O)c32)ccc1OCc1ccccc1Cl (stereo not given),–,inconclusive: -42.7% [inhibitor]
C/C(=N\NC(=O)COc1ccc(C)cc1Br)c1cc([N+](=O)[O-])cs1,inactive,–
CC(C(=O)NC(c1ccccc1)c1ccccc1)n1nc(C(=O)O)c2ccccc2c1=O (stereo not given),"inconclusive: 35.5 µM [inhibitor, full curve, poor fit]",–
O=C1OC(c2ccc(F)cc2)=C/C1=C\c1ccc(O)cc1,"inconclusive: 50.1 µM [inhibitor, partial curve]",–
O=C1C=CC(c2c[nH]c3ccccc23)CC1 (stereo not given),"inconclusive: 44.7 µM [inhibitor, partial curve]",–
CCOC(=O)Cc1csc(NC(=S)NC(=O)c2ccccc2)n1,inactive,–
Cc1cccc(NC(=O)C(C)Oc2ccc(C)nc2[N+](=O)[O-])c1 (stereo not given),"inconclusive: 79.4 µM [inhibitor, partial curve, poor fit]",–
CCC(c1nnnn1-c1ccc2c(c1)OCCO2)N1CCc2ccccc2C1 (stereo not given),inactive,–
COc1ccc2c(C)c(CC(=O)Nc3cccc(C)c3)c(=O)oc2c1OC,inactive,–
C/C(=N\Nc1cc(N2CCCCC2)nc(C)n1)c1ccc(Br)cc1,"inconclusive: 89.1 µM [inhibitor, single point]",–
CCN(Cc1cc2cc(OC)ccc2[nH]c1=O)C(=O)c1ccco1,"inconclusive: 44.7 µM [inhibitor, partial curve, poor fit]",–
O=C(Nc1cccc2c1CCCC2)c1ccc(F)cc1,"inconclusive: 1.58 µM [inhibitor, full curve, poor fit]",–
CC1=NOC(=O)/C1=C/c1ccc(N(C)C)cc1,inactive,–
CCOc1ccc(Br)cc1CNCc1cccnc1,"inconclusive: 3.55 µM [inhibitor, full curve, poor fit]",–
O=C(Nc1ccc2c(c1)OCO2)c1cc(C2CCCCN2S(=O)(=O)c2ccccc2)on1 (stereo not given),inactive,–
COc1ccc2oc(-c3ccccc3)c(C(=O)N3CCOCC3)c2c1,inactive,–
Cc1cccc(N2C(S)=C(C#N)C(=O)NC23CCCCC3)c1,"inconclusive: 50.1 µM [inhibitor, partial curve, poor fit]",–
CCCC(=O)Nc1ccc(CNCc2cccnc2)cc1,"inconclusive: 10 µM [inhibitor, full curve, poor fit]",–
COCCn1c(-c2ccccc2)nc(=S)c2c1CC(C)(C)OC2,"inconclusive: 56.2 µM [inhibitor, partial curve, poor fit]",–
COCCN1C(=O)CS(=O)(=O)C12CCN(C(=O)Cc1cccc(OC)c1)CC2,inactive,–
COc1ccc(-c2csc(NC(=O)c3ccccc3C(=O)O)n2)cc1,inactive,–
COc1ccc(NC(=O)c2c(C)oc3ccc(O)c(CN4CCN(C)CC4)c23)cc1Cl,–,inconclusive: -36.3% [inhibitor]

# 5 consecutive compounds from above, for reference:
Compound,Potency,"activity change, negative = inhibition"
C/C(=N\Nc1cc(N2CCCCC2)nc(C)n1)c1ccc(Br)cc1,"inconclusive: 89.1 µM [inhibitor, single point]",–
CCN(Cc1cc2cc(OC)ccc2[nH]c1=O)C(=O)c1ccco1,"inconclusive: 44.7 µM [inhibitor, partial curve, poor fit]",–
O=C(Nc1cccc2c1CCCC2)c1ccc(F)cc1,"inconclusive: 1.58 µM [inhibitor, full curve, poor fit]",–
CC1=NOC(=O)/C1=C/c1ccc(N(C)C)cc1,inactive,–
CCOc1ccc(Br)cc1CNCc1cccnc1,"inconclusive: 3.55 µM [inhibitor, full curve, poor fit]",–

# (next part)

Compound,Potency,"activity change, negative = inhibition"
CCN(C(=O)C(C)S(=O)(=O)Cc1ccccc1Cl)c1ccccc1 (stereo not given),inactive,–
Fc1cccc(Cl)c1/C=N/N=C1c2ccccc2-c2ccccc21,inactive,–
CCC1CCC(=C(C#N)C(=O)Nc2ccc(C)cc2)CC1 (stereo not given),"inconclusive: 70.8 µM [inhibitor, single point]",–
CC(=O)Oc1ccc(C(=O)O)c(OC(C)=O)c1,"inconclusive: 44.7 µM [inhibitor, single point]",–
C[C@]1(CO)[C@H]2Cc3sc(-c4ccsc4)nc3[C@@H](CC(=O)NCc3ccco3)[C@]2(C)CC[C@H]1O,"inconclusive: 25.1 µM [inhibitor, full curve, poor fit]",–
COc1cc(OC)cc(-c2cc3nc(C)c(CCC(=O)O)c(C)n3n2)c1,"inconclusive: 44.7 µM [inhibitor, partial curve, poor fit]",–
Cc1cc(C)cc(Oc2coc3c(CN(C)C)c(O)ccc3c2=O)c1,active: 6.31 µM,–
CCCOC(=S)N/C(=N\S(=O)(=O)c1ccccc1)c1ccccc1,active: 35.5 µM,–
CCOC(=O)c1cc(-c2ccccc2)sc1N,"inconclusive: 79.4 µM [inhibitor, partial curve, poor fit]",–
COc1ccc(CCNC(=O)c2ccc(CS(=O)(=O)c3ccc(C)cc3)o2)cc1OC,"inconclusive: 112 µM [inhibitor, partial curve, poor fit]",–
CONC(=O)c1ccc2c(c1)NC(=O)CS2,"inconclusive: 39.8 µM [inhibitor, partial curve]",–
COc1cccc(N2CCN(S(=O)(=O)c3ccc(-c4cnc(C5CC5)o4)cc3)CC2)c1,inactive,–
Cc1ccc(-c2nnc(Nc3ccc(C(N)=O)cc3)c3ccccc23)cc1S(=O)(=O)N1CCCCC1,–,inconclusive: -31.4% [inhibitor]
COc1ccccc1-c1cc(C(=O)NCCc2ccc(Cl)cc2)nc2c1cnn2C,–,inactive: -0.402% [at 6.33 µM]
CCn1cc(C(=O)NCCc2ccccc2)c(=O)c2cc(S(=O)(=O)N3CCOCC3)ccc21,inactive,–
CN(C)S(=O)(=O)c1cccc(NC(=O)CSc2ncnc3ccccc23)c1,inactive,–
NC(=O)c1ncn([C@@H]2O[C@H](CNCc3ccccc3C#Cc3ccccc3)[C@@H](O)[C@H]2O)n1,"inconclusive: 31.6 µM [inhibitor, partial curve, poor fit]",–
CCOc1ccc(S(=O)(=O)Nc2ccc(N3CCNCC3)c(C(=O)NCC(C)C)c2)cc1,"inconclusive: 50.1 µM [inhibitor, single point]",–
COc1ccc(C(=O)N2CCC3(C2)C(=NC2CCCCC2)NC(=O)N3c2cc(F)cc(F)c2)cc1 (stereo not given),–,inactive: 0.646% [at 6.33 µM]
CCSc1nnc(NC(=O)C(C)(C(F)(F)F)C(F)(F)F)s1,inactive,–
Cn1c(=O)c2c(-c3ccccc3)n(-c3ccc(N)cc3)cc2n(C)c1=O,"inconclusive: 35.5 µM [inhibitor, partial curve, poor fit]",–
Cc1cccc2c1N(Cc1ccc(OC(C)C)cc1)C(=O)C2=O,"inconclusive: 112 µM [inhibitor, partial curve, poor fit]",–
COc1ccccc1NC(=O)Cn1c(=O)n(-c2ccc(F)cc2)c(=O)c2c1cc(C)n2C,"inconclusive: 70.8 µM [inhibitor, partial curve]",–
COC(=O)C1=C(C)NC(=O)CC1C(=O)Nc1ccc(F)c(Cl)c1 (stereo not given),"inconclusive: 15.8 µM [inhibitor, full curve, poor fit]",–

Compound,Potency,"activity change, negative = inhibition"
Cc1sc2ncnc(N3CCC(C(=O)Nc4ccc(F)cc4Cl)CC3)c2c1C,"inconclusive: 79.4 µM [inhibitor, single point]",–
O=C(/C=C\c1ccco1)Oc1cccc2cccnc12,inactive,–
Cc1cc2cccc(C)c2nc1SCC(=O)NCC1CCCO1 (stereo not given),"inconclusive: 141 µM [inhibitor, partial curve, poor fit]",–
CCn1ncc(NC(=O)Cn2ncc3cc(-c4ccc(F)cc4F)ccc32)n1,"inconclusive: 4.47 µM [inhibitor, full curve, poor fit]",–
CCOC(=O)C1=C(C)N=c2s/c(=C/c3ccc(OCC(=O)O)cc3)c(=O)n2C1c1ccc(OC)cc1OC (stereo not given),inactive,–
CC(C)c1ccc(N2C=Nc3ccc(C(C)C)cc3C2)cc1,"inconclusive: 126 µM [inhibitor, single point]",–
CCOc1ccccc1CNC(=O)c1oc2c(c1C)-c1nn(Cc3cccc(Cl)c3)cc1CC2,"inconclusive: 50.1 µM [inhibitor, partial curve, poor fit]",–
CN(C)CCNC(=O)c1ccccc1,inactive,–
CC1(C(=O)NS(=O)(=O)c2cccc(Cl)c2)CCN1C(=O)Cc1ccccc1 (stereo not given),"inconclusive: 2.82 µM [inhibitor, full curve, poor fit]",–
FC(F)(F)c1ccccc1-c1nc(NCCN2CCOCC2)c2ccccc2n1,"inconclusive: 50.1 µM [inhibitor, partial curve, poor fit]",–
O=C(Cc1ccccc1)N/N=C/c1cc(Br)cc(Cl)c1O,"inconclusive: 12.6 µM [inhibitor, partial curve, poor fit]",–
COc1cccc(NC(=O)Nc2cccn(Cc3ccccc3)c2=O)c1,inactive,–
O=C(Nc1cccc(OCc2cc(=O)n3ccccc3n2)c1)Nc1cccc(C(F)(F)F)c1,–,inconclusive: -32.1% [inhibitor]
CCN1CCN(C(=S)c2ccc([N+](=O)[O-])cc2)CC1,inactive,–
COc1ccc2cc(C(=O)N3CCN(c4ccccc4O)CC3)c(C)nc2c1,"inconclusive: 79.4 µM [inhibitor, partial curve, poor fit]",–
CC(=O)Nc1ccc(SCC(=O)c2cc(C)n(-c3ccccc3)c2C)cc1,inactive,–
NS(=O)(=O)c1ccc(CCNC(=O)c2cc(-c3ccco3)nc3ccccc23)cc1,"inconclusive: 39.8 µM [inhibitor, partial curve, poor fit]",–
CN(C)C(=C(C#N)C#N)N1CCN(c2ccc(Cl)c(Cl)c2)CC1,inactive,–
CC(=O)c1ccc(C(=O)N(CCCN(C)C)c2nc3ccc(Br)cc3s2)cc1,"inconclusive: 44.7 µM [inhibitor, partial curve, poor fit]",–
CC1CCN(C(=S)c2ccc(O)cc2)CC1,inactive,–
O=C(CCc1ncc(-c2ccc(Cl)cc2)o1)Nc1ccc(F)cc1,inactive,–
COc1ccc2cc(C3=CCCC3(C)C(=O)O)ccc2c1 (stereo not given),"inconclusive: 56.2 µM [inhibitor, partial curve, poor fit]",–
